Assay results: US8633313B2, “Heterocyclic compounds and their uses” (Amgen Inc., priority 2009, dated 2014)
Read-outs that look alike come from different tables or passages of the source. At least one structure is not confirmed: it was looked up by name or label, or the drawing left a doubt.

Experiments:
neutrophil migration = conditions: cited from earlier work
CHO-IR-AKT1-EGFP cells = assay: AKT membrane ruffling assay; format: cell-based; conditions: control, 10 uM
U2OS EGFP-2×FYVE cells = assay: Class III PI(3)P assay; format: cell-based; conditions: control, 10 uM
Class I PI 3-kinases = conditions: cited from earlier work
[1] = system: MDA MB468 Forkhead-DiversaGFP cells; assay: Forkhead translocation assay; format: cell-based; conditions: control, 10 uM
superoxide release = conditions: neutrophil; cited from earlier work

Row | SMILES | neutrophil migration (neutrophil migration) | AKT localisation (CHO-IR-AKT1-EGFP cells) | PI(3)P on endosomes (U2OS EGFP-2×FYVE cells) | IC50 (Class I PI 3-kinases; read-out: IC50 against each of the various Class I PI 3-kinases) [nM] | Forkhead localisation [1] | superoxide release (superoxide release) | IC50 (Class I PI 3-kinases; read-out: IC50 against each of these PI 3-kinases) [nM]
1 | COC[C@H]1OC(=O)c2coc3c2[C@@]1(C)C1=C(C3=O)[C@@H]2CCC(=O)[C@@]2(C)C[C@H]1OC(C)=O [wortmannin] | block | cytoplasmic | depleted from endosomes | 1 to 10 | nuclear | block | –
2 | O=c1cc(N2CCOCC2)oc2c(-c3ccccc3)cccc12 [LY294002] | block | – | – | – | – | block | ~1000
